# Laboratory results as given in publication PMC9997082.
# Results are given in words; binding and its absence hold for the method and conditions named. Some binding calls cover weakened binding; strength is not graded here. Sequences can lack the tags named with a protein.
# T1: recombinant mouse His-tagged IL2-RB (mouse (methods; results and legend say human)) (UniProt P16297)
# T1 sequence: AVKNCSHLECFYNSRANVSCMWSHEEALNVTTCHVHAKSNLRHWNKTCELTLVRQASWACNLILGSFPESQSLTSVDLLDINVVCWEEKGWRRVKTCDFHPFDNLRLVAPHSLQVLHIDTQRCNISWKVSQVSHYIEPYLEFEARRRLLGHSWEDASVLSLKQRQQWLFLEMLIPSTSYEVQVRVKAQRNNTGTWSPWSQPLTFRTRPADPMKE
# B1: recombinant mouse Fc-tagged IL2 (IL2-Fc) (Fc fusion, UniProt P04351 21-169)
# chain: APTSSSTSSSTAEAQQQQQQQQQQQQHLEQLLMDLQELLSRMENYRNLKLPRMLTFKFYLPKQATELKDLQCLEDELGPLRHVLDLTQSKSFQLEDAENFISNIRVTVVKLKGSDNTFECQFDDESATVVDFLRRWIAFCQSIISTSPQ
# Molecular target: T1, recombinant mouse His-tagged IL2-RB (mouse (methods; results and legend say human))
# Test: ELISA; plates coated with 2 µg/mL His-tagged IL2-RB overnight at 4°C; serially diluted antibody-cytokine chimera or IL2-Fc 2 h at 37°C; detection with HRP anti-mouse IgG H+L; both purified
binder,measurement,value
B1,binding,binds
